According to PMC8118655:
Results are given in words; binding and its absence hold for the method and conditions named. In cells and extracts the contact can be indirect. These calls come from enrichment with a bait or labelling near it, and not all partners need be listed.

The chains behind the UniProt entries cited, without tags or fusion partners. Residues count along the entry.
UniProt Q13510, residues 22-395: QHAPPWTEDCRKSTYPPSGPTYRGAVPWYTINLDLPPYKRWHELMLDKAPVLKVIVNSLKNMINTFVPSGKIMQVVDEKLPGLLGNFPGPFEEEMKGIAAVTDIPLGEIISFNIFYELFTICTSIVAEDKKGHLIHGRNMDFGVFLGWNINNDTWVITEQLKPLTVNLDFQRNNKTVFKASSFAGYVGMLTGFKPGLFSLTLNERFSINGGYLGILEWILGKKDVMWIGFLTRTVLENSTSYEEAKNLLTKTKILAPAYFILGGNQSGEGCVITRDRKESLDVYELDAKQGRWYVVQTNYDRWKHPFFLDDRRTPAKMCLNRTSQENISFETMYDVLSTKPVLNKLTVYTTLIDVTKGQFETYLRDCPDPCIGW
UniProt O95714: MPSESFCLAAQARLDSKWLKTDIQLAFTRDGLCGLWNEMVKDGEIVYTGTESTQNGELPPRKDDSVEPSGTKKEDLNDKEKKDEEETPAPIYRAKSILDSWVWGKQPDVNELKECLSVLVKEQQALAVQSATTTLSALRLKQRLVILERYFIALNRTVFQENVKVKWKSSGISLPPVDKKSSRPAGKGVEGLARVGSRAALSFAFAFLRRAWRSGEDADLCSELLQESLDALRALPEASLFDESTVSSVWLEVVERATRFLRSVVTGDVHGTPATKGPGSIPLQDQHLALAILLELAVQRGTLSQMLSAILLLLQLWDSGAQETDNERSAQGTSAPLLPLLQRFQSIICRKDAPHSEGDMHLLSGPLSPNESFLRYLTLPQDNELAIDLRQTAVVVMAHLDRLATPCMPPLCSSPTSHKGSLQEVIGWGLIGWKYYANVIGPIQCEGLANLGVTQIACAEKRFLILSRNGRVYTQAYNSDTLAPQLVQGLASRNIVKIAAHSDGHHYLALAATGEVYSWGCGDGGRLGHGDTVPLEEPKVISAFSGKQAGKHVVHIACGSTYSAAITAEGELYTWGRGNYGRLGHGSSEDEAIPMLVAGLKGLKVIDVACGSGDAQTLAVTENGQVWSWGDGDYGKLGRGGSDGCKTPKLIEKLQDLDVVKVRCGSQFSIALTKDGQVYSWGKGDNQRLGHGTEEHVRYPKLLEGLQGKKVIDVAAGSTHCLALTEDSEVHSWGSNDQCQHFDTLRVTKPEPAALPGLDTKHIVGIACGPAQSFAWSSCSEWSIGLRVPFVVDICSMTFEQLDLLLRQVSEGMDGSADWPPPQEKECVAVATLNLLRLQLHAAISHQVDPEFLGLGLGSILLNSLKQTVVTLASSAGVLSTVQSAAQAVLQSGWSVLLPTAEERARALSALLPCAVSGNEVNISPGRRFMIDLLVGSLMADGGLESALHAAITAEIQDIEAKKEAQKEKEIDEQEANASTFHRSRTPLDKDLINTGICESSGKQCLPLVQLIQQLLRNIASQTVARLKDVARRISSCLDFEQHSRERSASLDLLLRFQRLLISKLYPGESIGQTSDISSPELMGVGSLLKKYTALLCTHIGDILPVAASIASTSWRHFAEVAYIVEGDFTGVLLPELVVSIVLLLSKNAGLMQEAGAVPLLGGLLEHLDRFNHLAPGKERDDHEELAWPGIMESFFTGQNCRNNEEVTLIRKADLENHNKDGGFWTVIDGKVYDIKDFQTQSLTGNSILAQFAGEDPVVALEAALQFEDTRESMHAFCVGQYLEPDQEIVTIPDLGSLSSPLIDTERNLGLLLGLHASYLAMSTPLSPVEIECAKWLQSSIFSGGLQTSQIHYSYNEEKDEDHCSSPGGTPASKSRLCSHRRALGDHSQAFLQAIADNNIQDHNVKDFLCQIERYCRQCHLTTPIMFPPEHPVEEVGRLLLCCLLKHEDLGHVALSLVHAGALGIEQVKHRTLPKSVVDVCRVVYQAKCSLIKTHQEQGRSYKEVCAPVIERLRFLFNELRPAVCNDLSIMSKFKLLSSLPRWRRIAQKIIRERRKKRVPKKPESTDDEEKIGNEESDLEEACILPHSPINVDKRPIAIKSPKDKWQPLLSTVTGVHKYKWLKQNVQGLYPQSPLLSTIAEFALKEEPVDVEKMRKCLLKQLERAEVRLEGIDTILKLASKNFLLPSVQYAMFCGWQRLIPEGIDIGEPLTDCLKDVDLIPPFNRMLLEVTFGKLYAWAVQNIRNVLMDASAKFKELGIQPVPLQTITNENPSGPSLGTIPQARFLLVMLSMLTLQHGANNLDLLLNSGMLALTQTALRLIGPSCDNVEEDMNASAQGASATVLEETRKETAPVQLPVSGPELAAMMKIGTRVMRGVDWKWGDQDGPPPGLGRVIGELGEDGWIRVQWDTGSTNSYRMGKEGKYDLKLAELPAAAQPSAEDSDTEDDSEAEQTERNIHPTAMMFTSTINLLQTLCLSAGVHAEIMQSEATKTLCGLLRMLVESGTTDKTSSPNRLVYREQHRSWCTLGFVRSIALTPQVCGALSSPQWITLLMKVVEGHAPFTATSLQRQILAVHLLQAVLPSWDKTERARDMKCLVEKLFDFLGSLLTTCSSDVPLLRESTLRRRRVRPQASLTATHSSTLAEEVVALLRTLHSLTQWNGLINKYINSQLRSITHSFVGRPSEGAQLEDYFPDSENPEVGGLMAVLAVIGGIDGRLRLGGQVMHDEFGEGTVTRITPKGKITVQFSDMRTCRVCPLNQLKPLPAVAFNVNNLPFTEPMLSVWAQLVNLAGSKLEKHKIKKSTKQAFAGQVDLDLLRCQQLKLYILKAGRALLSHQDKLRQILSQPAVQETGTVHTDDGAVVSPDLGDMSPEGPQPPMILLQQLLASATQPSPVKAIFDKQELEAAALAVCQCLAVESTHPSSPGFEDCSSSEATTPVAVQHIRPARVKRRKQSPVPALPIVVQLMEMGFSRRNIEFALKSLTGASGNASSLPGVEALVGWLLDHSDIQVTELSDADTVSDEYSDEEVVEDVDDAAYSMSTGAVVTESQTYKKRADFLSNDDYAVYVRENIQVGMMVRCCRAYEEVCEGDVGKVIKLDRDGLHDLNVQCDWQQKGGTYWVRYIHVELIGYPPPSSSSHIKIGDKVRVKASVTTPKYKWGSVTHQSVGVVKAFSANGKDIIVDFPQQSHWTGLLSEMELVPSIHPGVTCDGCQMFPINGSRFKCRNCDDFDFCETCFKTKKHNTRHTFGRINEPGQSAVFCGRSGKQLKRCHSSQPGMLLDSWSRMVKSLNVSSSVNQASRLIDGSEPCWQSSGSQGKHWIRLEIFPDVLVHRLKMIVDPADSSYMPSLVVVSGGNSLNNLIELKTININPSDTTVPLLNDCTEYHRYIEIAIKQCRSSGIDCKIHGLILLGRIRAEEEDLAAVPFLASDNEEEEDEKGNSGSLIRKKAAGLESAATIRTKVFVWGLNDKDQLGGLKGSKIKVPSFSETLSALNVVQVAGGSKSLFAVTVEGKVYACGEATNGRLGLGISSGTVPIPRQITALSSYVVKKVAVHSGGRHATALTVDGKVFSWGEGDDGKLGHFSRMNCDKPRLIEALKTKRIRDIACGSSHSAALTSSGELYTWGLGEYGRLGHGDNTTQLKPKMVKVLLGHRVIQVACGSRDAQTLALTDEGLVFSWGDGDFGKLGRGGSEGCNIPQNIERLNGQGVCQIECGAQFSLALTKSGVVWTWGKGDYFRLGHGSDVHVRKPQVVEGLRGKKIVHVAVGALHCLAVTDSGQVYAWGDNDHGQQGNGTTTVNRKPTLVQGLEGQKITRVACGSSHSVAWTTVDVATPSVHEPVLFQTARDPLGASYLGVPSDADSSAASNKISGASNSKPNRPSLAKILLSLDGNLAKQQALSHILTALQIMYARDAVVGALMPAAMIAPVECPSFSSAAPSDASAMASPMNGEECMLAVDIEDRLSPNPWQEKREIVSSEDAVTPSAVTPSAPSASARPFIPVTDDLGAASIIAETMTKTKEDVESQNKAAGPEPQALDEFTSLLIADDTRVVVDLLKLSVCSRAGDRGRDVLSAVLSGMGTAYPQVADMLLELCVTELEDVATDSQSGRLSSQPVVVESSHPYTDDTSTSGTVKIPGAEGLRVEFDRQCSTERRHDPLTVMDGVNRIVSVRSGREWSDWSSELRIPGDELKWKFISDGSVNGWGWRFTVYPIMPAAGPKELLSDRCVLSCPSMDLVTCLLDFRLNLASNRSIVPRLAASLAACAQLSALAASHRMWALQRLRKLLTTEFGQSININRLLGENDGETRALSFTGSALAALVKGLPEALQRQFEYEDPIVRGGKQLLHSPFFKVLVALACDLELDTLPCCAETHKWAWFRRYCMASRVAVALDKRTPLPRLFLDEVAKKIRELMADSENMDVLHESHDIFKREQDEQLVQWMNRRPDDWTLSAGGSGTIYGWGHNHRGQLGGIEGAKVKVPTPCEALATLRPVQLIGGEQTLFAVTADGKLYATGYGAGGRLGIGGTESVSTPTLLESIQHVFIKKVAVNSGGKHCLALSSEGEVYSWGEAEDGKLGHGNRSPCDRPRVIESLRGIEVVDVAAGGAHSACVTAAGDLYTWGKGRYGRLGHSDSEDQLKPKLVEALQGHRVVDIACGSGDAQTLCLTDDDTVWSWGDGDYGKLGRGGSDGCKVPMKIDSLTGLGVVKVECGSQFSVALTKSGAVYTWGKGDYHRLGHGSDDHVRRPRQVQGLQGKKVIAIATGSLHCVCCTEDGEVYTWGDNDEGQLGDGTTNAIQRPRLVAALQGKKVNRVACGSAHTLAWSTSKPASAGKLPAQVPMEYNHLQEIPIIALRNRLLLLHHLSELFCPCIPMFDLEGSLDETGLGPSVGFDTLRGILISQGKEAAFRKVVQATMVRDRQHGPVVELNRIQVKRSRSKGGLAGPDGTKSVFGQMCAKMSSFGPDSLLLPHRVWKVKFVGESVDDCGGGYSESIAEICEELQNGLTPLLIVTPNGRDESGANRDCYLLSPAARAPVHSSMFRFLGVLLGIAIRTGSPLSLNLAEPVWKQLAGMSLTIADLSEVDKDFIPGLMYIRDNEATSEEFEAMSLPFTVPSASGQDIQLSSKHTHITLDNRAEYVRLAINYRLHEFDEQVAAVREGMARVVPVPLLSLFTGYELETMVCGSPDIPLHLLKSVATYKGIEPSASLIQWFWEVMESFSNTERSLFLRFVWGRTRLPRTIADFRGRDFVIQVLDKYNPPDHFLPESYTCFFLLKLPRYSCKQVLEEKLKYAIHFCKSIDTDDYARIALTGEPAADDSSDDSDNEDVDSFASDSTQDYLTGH

These substances were tested against T1, ubiquitin domain-containing protein 1 (UBTD1) (human (endogenous in DU145)) (UniProt Q9HAC8) (assay: affinity purification with mass spectrometry; immunoprecipitation of endogenous UBTD1 (bait) from DU145 lysate in mild stringency NP40 buffer; partners identified by LC-MS/MS).
T1 sequence: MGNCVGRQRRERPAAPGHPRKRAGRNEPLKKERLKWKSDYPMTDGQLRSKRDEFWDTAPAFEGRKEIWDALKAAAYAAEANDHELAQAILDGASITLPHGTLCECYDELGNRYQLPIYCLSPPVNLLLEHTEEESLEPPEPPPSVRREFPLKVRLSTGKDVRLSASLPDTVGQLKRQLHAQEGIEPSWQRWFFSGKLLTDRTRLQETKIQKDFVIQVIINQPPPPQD
With “epidermal growth factor receptor (EGFR) (from UniProt P00533 25-1210)” the binding was “binds”.
In the case of “N-acylsphingosine amidohydrolase 1 (ASAH1), lysosomal ceramidase (from UniProt Q13510 22-395) (enzyme)”, the binding is reported as “binds”.
With “E3 ligase HERC2 (from UniProt O95714 1-4834) (enzyme)” the binding was “binds”.
In the case of “Sequestosome 1 (SQSTM1/p62) (from UniProt Q13501 1-440)”, the binding is reported as “binds”.
